The text below walks through data of US20190300610A1.

These are yes or no findings as the source states them, for the method shown. A result given as binding can be weak or reduced; the word gives no strength.

In the experiment the target is human VISTA polypeptide (ELISA coat) (human). The experiment is described as follows: ELISA, target protein coated at 1 µg/ml. (In general: ELISA stands for enzyme-linked immunosorbent assay.)

B1: anti-VISTA clone 13D5-1 IgG1 (antibody, V domains shown)
VH: QVQLQQSGAELVRPGTSVKISCKASGYTFTNYWLGWVKQRPGHGLEWIGDIYPGGGYTNYNEKFKGKATLTADTSSSTAYMQLSSLTSEDSAVYFCVRSGYYYGSSWYFDVWGAGTTVTVSS
VL: DVLMTQTPLSLPVSLGDQASISCRSSQSIVHSSGNTYLEWYLQKPDQSPKLLIYKVSNRFSGVPDRFSGSGSGTDFTLKISRVEAEDLGVYYCFQGSHVPPTFGGGTKLEIKR
Turning to B1, the binding result is “binds”.

B2: anti-VISTA clone 13D5-13 IgG1 (antibody, V domains shown)
VH: QVQLQQSGAELVRPGTSVKISCKASGYTFTNYWLGWVKQRPGHGLEWIGDIYPGGGYTNYNEKFKGKATLTADISSSTAYMQLSSLTSEDSADYFCVRGGYYYGSSWYFDVWGAGTTVTVSS
VL: DVLMTQTPLSLPVSLGDQASISCRSSQSTVHSIGNTYLEWYLQKPGQSPKLLIYKVSNRFSGVPDRFSGSESGTDFTLKISRVEAEDLGVYYCFQGSHVPPTFGGGTKLEIKR
Consider B2, for which the binding entry was “binds”.
